The record followed here is the supplement of paper PMC12819154, “High-throughput peptide-centric local stability assay extends protein–ligand identification to membrane proteins, tissues and bacteria” (Nature Structural & Molecular Biology, 2025).

Protein sequences, listed by entry. Tags and fused reporters are not part of them. Lines headed by an entry give the natural chain unless they say otherwise; changes in a name come on top.
UniProt A8MPP1: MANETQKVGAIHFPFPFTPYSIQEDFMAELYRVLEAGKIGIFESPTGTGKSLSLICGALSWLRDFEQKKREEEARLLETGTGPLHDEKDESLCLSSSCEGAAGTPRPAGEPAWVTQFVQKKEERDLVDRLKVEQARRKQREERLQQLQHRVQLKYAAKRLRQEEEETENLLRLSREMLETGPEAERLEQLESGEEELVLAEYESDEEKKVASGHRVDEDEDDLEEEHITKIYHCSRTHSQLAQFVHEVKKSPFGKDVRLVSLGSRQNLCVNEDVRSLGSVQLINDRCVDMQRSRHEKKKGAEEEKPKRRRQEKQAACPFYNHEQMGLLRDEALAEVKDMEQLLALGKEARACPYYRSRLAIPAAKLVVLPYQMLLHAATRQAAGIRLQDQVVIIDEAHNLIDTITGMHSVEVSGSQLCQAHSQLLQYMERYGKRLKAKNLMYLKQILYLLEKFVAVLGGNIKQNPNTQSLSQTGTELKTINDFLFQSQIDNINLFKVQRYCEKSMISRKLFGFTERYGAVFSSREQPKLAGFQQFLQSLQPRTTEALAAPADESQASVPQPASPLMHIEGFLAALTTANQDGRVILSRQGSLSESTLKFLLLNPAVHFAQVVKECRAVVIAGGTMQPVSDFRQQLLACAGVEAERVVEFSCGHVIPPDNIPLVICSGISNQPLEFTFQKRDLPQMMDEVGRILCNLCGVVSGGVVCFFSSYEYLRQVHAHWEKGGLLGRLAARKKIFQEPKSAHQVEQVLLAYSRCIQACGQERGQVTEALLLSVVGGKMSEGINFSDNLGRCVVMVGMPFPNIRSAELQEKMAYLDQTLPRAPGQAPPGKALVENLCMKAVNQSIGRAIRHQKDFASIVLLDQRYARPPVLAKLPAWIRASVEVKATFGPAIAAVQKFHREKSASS
UniProt O15127: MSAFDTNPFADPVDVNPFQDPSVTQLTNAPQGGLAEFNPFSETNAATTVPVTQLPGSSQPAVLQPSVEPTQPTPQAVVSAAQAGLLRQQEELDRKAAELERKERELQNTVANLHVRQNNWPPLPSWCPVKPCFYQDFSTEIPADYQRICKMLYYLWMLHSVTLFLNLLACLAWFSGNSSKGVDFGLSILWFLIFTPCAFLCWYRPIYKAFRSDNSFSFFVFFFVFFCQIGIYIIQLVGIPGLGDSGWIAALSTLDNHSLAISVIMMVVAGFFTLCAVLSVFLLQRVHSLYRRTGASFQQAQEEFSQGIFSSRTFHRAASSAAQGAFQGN
UniProt O00410: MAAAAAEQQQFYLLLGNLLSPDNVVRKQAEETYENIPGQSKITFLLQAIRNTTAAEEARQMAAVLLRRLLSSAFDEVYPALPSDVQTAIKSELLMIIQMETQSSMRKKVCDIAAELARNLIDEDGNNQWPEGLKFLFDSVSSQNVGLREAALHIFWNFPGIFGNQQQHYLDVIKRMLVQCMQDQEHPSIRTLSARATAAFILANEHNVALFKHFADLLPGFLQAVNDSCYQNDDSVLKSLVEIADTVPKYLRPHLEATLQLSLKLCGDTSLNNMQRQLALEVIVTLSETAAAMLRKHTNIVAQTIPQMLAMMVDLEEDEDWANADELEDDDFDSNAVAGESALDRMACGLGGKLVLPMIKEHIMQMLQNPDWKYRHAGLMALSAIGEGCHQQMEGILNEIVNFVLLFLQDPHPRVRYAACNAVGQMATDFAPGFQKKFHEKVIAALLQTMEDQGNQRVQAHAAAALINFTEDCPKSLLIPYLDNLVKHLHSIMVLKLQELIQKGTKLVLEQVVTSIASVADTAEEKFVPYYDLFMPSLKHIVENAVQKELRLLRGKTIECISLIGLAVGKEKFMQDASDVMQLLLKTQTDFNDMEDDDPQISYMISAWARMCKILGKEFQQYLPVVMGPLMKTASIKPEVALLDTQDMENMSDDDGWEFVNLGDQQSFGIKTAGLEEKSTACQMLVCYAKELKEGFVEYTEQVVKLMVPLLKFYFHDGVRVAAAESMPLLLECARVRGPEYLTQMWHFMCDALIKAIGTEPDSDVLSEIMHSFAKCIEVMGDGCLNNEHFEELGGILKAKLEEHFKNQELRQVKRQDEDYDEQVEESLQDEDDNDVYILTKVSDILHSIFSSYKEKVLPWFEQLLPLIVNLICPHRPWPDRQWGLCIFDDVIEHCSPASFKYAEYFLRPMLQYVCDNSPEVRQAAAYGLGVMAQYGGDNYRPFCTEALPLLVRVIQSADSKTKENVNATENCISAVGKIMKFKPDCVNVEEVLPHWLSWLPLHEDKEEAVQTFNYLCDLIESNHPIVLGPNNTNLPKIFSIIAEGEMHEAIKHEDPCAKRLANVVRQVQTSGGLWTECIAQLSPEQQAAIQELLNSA
UniProt O14770: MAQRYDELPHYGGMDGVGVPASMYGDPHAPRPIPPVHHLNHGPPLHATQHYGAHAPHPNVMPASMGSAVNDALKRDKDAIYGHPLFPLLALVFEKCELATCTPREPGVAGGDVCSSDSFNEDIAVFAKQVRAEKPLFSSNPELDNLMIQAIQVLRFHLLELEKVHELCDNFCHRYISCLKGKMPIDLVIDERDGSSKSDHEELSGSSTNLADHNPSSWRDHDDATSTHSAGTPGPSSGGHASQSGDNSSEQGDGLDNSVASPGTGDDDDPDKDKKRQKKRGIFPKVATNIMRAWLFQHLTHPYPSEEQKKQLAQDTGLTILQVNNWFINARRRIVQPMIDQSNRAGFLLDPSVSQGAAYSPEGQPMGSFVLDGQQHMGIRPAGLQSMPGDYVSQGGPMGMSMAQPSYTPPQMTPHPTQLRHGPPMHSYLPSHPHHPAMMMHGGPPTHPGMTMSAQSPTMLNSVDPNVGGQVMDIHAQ
UniProt O15062: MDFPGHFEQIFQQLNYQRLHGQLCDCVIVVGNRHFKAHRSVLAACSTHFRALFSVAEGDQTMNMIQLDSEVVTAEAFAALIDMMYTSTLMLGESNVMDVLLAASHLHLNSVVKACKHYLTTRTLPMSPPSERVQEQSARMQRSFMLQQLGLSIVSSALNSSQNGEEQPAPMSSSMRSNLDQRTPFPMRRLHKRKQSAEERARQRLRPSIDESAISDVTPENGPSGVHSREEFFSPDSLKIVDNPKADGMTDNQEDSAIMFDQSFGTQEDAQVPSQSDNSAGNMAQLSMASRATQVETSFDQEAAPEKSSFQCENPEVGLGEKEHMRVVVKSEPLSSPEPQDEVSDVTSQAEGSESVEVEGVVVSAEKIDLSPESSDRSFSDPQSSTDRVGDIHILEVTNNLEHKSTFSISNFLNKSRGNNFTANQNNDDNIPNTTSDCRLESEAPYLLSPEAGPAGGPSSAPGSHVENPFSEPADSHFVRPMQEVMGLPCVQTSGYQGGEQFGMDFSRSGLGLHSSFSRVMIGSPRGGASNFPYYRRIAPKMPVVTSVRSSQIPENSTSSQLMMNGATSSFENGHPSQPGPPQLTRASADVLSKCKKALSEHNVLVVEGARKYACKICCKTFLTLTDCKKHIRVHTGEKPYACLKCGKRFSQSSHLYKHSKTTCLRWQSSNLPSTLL
UniProt O15067: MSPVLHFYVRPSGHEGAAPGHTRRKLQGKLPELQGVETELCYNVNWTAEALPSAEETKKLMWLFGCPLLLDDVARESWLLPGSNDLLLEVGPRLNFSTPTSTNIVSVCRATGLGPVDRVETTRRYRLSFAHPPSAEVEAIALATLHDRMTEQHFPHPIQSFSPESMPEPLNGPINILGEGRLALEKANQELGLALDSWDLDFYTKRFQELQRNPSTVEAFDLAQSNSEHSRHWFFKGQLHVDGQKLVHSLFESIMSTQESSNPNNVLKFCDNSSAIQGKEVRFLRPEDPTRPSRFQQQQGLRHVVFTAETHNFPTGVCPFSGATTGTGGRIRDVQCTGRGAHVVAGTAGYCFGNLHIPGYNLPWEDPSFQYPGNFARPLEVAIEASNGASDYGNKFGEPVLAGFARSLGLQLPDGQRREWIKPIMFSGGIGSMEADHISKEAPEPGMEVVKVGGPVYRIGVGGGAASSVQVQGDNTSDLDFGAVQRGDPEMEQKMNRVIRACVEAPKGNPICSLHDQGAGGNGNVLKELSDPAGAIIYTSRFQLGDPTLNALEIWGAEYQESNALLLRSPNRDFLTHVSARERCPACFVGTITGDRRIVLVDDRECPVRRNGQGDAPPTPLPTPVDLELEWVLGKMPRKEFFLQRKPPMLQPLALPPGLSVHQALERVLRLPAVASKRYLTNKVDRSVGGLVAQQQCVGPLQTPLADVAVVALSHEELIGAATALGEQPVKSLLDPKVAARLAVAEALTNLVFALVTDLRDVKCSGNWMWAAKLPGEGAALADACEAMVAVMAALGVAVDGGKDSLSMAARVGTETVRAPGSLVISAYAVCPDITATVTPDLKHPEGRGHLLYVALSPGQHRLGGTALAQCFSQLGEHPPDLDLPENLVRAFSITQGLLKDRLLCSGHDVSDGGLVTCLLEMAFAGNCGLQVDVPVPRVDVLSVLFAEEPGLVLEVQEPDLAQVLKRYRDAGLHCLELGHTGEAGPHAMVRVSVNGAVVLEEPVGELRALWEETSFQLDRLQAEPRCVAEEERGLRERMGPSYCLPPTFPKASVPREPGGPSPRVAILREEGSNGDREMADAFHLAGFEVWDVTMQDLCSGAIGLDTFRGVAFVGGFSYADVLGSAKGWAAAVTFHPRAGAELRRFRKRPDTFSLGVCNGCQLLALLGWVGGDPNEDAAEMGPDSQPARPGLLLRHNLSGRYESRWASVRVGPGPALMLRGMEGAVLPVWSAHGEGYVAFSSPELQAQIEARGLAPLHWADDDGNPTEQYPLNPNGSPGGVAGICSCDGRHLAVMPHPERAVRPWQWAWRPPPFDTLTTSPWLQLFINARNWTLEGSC
UniProt O15370: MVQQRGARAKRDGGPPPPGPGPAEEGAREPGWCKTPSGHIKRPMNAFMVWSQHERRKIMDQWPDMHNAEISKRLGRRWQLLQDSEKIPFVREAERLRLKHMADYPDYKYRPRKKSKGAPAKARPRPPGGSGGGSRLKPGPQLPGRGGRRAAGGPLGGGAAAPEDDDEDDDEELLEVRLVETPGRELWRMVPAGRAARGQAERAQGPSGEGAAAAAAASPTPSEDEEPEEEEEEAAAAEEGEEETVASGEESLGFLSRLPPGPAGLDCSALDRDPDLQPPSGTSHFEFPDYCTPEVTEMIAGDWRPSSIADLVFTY
UniProt O14602, whole entry: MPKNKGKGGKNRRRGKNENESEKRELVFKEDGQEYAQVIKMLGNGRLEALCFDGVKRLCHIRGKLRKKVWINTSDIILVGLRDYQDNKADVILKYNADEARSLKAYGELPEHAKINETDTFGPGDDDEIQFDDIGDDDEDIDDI
UniProt O15131, whole entry: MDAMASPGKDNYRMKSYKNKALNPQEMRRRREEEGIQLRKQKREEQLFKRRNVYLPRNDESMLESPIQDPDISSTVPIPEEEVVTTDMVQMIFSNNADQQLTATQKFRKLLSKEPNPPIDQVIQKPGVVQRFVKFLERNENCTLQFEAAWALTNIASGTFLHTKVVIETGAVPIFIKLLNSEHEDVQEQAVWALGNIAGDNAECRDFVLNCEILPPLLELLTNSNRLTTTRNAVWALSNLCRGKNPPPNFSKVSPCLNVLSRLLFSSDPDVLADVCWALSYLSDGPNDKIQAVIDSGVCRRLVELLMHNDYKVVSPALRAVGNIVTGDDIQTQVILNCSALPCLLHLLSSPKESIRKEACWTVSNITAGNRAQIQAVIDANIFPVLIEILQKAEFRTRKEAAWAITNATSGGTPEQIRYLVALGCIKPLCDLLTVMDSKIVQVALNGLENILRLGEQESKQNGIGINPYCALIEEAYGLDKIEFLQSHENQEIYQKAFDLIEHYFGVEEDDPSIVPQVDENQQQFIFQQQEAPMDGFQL
UniProt O14641: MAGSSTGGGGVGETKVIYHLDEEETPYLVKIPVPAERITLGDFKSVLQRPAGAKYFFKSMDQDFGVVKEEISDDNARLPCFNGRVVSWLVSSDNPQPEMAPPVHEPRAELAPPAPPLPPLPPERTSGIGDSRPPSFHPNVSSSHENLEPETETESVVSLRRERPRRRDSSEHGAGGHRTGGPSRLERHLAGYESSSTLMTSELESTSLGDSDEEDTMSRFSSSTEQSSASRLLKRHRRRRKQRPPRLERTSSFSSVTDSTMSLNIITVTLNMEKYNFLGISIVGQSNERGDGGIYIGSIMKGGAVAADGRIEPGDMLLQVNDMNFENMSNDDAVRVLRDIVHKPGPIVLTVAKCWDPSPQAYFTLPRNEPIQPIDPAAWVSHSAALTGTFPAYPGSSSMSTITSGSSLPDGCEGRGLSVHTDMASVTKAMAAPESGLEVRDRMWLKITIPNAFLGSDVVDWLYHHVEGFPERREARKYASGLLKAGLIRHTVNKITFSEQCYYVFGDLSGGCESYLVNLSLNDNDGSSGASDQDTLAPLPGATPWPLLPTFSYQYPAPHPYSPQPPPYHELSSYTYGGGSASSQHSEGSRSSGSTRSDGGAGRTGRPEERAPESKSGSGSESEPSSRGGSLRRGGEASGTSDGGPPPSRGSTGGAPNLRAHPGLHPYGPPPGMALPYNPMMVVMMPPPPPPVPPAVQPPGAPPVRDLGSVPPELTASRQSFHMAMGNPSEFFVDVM

This is one part of the list. Most values lie at the level of the controls, where differences are scatter.

Compound in this assay: CN[C@@H]1C[C@H]2O[C@@](C)([C@@H]1OC)n1c3ccccc3c3c4c(c5c6ccccc6n2c5c31)C(=O)NC4 [staurosporine]
Briefly: log2 fold change of tryptic peptide abundance, ligand vs vehicle (limited proteolysis) (log2 ratio); higher = more trypsin-susceptible (destabilized). The note with it: ligand concentration: 20 uM; sample: K562 cleared lysate; digestion: 4 min, 22 C (HT-PELSA RT4min, Orbitrap Astral).
In the case of “FCHO1 (peptide sequence: EKPGPLDFEAYSAAALQEAMKR, peptide start residue: 261) (UniProt O14526)”, the log2 fold change was 0.14.

“DDX11L8 (peptide sequence: HQKDFASIVLLDQR, peptide start residue: 870) (UniProt A8MPP1)”: the log2 fold change was -0.705.

Regarding “PIP5K1B (peptide sequence: IVVMNNVLPR, peptide start residue: 185) (UniProt O14986)”, the log2 fold change was -0.557.

Take “BCKDK (peptide sequence: QLLDDHKDVVTLLAEGLR, peptide start residue: 157) (UniProt O14874)”: the log2 fold change was -0.288.

Consider “UniProt A8MT65 (peptide sequence: TKESTVQK, peptide start residue: 121)”, for which the log2 fold change was 0.113.

“SLC9A3R1 (peptide sequence: LLVVDRETDEFFK, peptide start residue: 228) (UniProt O14745)”: the log2 fold change is 0.309.

“ACOX3 (peptide sequence: TLLPMPGVMVGDIGKK, peptide start residue: 235) (UniProt O15254)”: the log2 fold change is -0.716.

Take “NUDT19 (peptide sequence: SPHQGFMPGAHVFSGGVLDAADR, peptide start residue: 50) (UniProt A8MXV4)”: the log2 fold change was -0.816.

For “UniProt B3KNS4 (peptide sequence: RDPWYSTVGLLPPVR, peptide start residue: 20)”, the log2 fold change is -0.0781.

As for “SCAMP2 (peptide sequence: QQEELDRK, peptide start residue: 88) (UniProt O15127)”, the log2 fold change worked out at 0.315.

“STX7 (peptide sequence: ETDKYIKEFGSLPTTPSEQR, peptide start residue: 65) (UniProt O15400)”: the log2 fold change is -0.23.

Turning to “UniProt O00507 (peptide sequence: FLFTTGFHTK, peptide start residue: 2051)”, the log2 fold change is 0.355.

With “IPO5 (peptide sequence: FYFHDGVR, peptide start residue: 713) (UniProt O00410)”, the log2 fold change came to 0.736.

“UniProt O15265 (peptide sequence: VPAVNNVHMK, peptide start residue: 859)”: the log2 fold change is -0.503.

In the case of “MEIS2 (peptide sequence: SDHEELSGSSTNLADHNPSSWR, peptide start residue: 198) (UniProt O14770)”, the log2 fold change was 0.426.

For the target “ZBTB5 (peptide sequence: EEFFSPDSLK, peptide start residue: 230) (UniProt O15062)”, the log2 fold change was found to be 0.29.

“UniProt A6NIE6 (peptide sequence: ALENDFFNSPPRK, peptide start residue: 36)”: the log2 fold change worked out at 0.209.

Turning to “TOR1B (peptide sequence: KPLTLSLHGWAGTGK, peptide start residue: 101) (UniProt O14657)”, the log2 fold change is -0.443.

Take “SCAMP1 (peptide sequence: EHALAQAELLK, peptide start residue: 79) (UniProt O15126)”: the log2 fold change was -0.0296.

With “UniProt O15054 (peptide sequence: SESEVLEEISR, peptide start residue: 909)”, the log2 fold change is -0.268.

“ZNF785 (peptide sequence: RLPHSCPDCGR, peptide start residue: 169) (UniProt A8K8V0)”: the log2 fold change is -0.315.

Regarding “WWP2 (peptide sequence: TTTWQRPTAEYVR, peptide start residue: 355) (UniProt O00308)”, the log2 fold change was -0.15.

On to “UniProt A6NKF1 (peptide sequence: LEVVPGCR, peptide start residue: 78)”, for which the log2 fold change is -0.189.

For “POLR3G (peptide sequence: VYKEEWIPDWR, peptide start residue: 94) (UniProt O15318)”, the log2 fold change was -0.177.

For the target “CLIC2 (peptide sequence: YKESFDVGCNLFAK, peptide start residue: 106) (UniProt O15247)”, the log2 fold change was determined as 0.271.

For the target “NFIB (peptide sequence: DQDMSSPTTMK, peptide start residue: 307) (UniProt O00712)”, the log2 fold change came to 0.367.

Take “PFAS (peptide sequence: FLRPEDPTRPSR, peptide start residue: 283) (UniProt O15067)”: the log2 fold change was 0.384.

Take “POLRMT (peptide sequence: LHSEPILQDLSR, peptide start residue: 1174) (UniProt O00411)”: the log2 fold change was determined as 0.28.

With “SOX12 (peptide sequence: WQLLQDSEKIPFVR, peptide start residue: 78) (UniProt O15370)”, the log2 fold change is -0.144.

For “SUPT5H (peptide sequence: DQREEELGEYYMK, peptide start residue: 131) (UniProt O00267)”, the log2 fold change is -0.163.

Regarding “UniProt O14602 (peptide sequence: AYGELPEHAK, peptide start residue: 105)”, the log2 fold change came out at 0.13.

As to “KPNA5 (peptide sequence: ALNPQEMR, peptide start residue: 21) (UniProt O15131)”, the log2 fold change is 0.0413.

As for “TRDMT1 (peptide sequence: VLELYSGVGGMHHALR, peptide start residue: 6) (UniProt O14717)”, the log2 fold change is 0.465.

On to “DVL2 (peptide sequence: VIYHLDEEETPYLVK, peptide start residue: 16) (UniProt O14641)”, for which the log2 fold change was -0.182.

As to “APAF1 (peptide sequence: KADLPEQAHSIIK, peptide start residue: 303) (UniProt O14727)”, the log2 fold change was -0.318.

As for “SOCS6 (peptide sequence: LANVPDGSFLVR, peptide start residue: 398) (UniProt O14544)”, the log2 fold change was -0.237.
